Measured values: PubChem BioAssay AID434947 (Broad Institute, 2010)
Screen size: about 2,200 compounds; about 15 (0.7%) were called active.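 The calls were made as follows: active = fitted half-maximal concentration for loss of luminescence signal no more than a set limit of log units above the top tested concentration; inconclusive = flat fit with 30 to 70% signal loss, or invalid fit; inactive = half-maximal concentration above that set limit.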 This is one part of the list.

Experiment: ADP-Glo luciferase signal interference – biochemical, luminescence, cell-free, homogeneous, artefact control for GSK3beta inhibitor project, dose response (AID 434947);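 also: kinase-free counter screen of ADP-Glo detection reagents for GSK3beta hits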
Settings: Cell-free ADP-Glo reagents, 5 uM ADP

Compound | EC50
O=C(O)c1ccccc1Nc1ccc(OC(F)F)cc1 | inactive: > 30 µM
CSc1nc2c(c(=O)[nH]1)C(c1ccccc1)C1=C(CC(C)(C)CC1=O)N2 (centres undefined) | inactive: > 30 µM
O=C(NCCCn1ccnc1)c1ccco1 | inactive: > 30 µM
COC(=O)c1sc(Nc2ccccc2)nc1C | inactive: > 30 µM
O=C(c1cccs1)c1coc2ccc(O)cc12 | inactive: > 30 µM
CCCCCOc1ccc(/C=N/NC(=O)c2nnn(-c3nonc3N)c2CN2CCCCCC2)cc1 | inactive: > 30 µM
Nc1nc(NCCCN2CCOCC2)nc(Nc2ccccc2)c1[N+](=O)[O-] | inactive: > 30 µM
CC(C)=CCc1c(O)cc(O)c2c1OC(c1ccc(O)cc1)CC2=O (centres undefined) | inactive: > 30 µM
Cc1[nH][nH]c(=O)c1N=Nc1ccccc1C#N | inactive: > 30 µM
CCN(CC)CCNc1nc(SC)nc2sc3c(c12)CCN(C)C3 | inactive: > 30 µM
Cc1ccc(SCC(=O)N2CC(C)OC(C)C2)cc1 (centres undefined) | inactive: > 30 µM
N#CCCN1CCCc2cc(N=Nc3ccc(C(F)(F)F)cc3)ccc21 | inactive: > 30 µM
Cc1ccc(S(=O)(=O)/N=C2/NC(=O)/C(=C/c3ccccc3)S2)cc1 | inactive: > 30 µM
COc1ccc(CN(CC(=O)NCc2ccccc2)C(=O)CCC(=O)Nc2nccs2)cc1 | inactive: > 30 µM
COCCn1c(SCC(=O)Nc2cccc(S(N)(=O)=O)c2)nc2ccccc21 | inactive: > 30 µM
CN1C(N)=NC(=O)/C1=C/c1ccc(F)cc1 | inactive: > 30 µM
COc1cccc(C2C3=C(CC(C)(C)CC3=O)Nc3n[nH]c(C)c32)c1 (centres undefined) | inactive: > 30 µM
Cn1c(SCC(=O)Nc2ccc(Cl)cn2)nnc1C1CC1 | inactive: > 30 µM
Cc1cccc(N2CCN(C(=O)c3csc4ccccc34)CC2C)c1 (centres undefined) | inactive: > 30 µM
O=C(Nc1cccc2c1C(=O)NC2=O)c1cccc(N2C(=O)CCC2=O)c1 | inactive: > 30 µM

Compound | EC50
O=C(Nc1ccc2c(c1)OCO2)Nc1ccccn1 | inactive: > 30 µM
Cc1c(Br)c([N+](=O)[O-])nn1CC(=O)Nc1c(C)n(C)n(-c2ccccc2)c1=O | inactive: > 30 µM
COc1ccc(OC)c(N=c2oc3cc(O)ccc3cc2C(N)=O)c1 | inactive: > 30 µM
COc1ccc2nc3c(cc2c1)c(NC(=O)CC(C)C)nn3CC(C)C | inactive: > 30 µM
Cc1ccc(C(=O)O/N=C\c2ccc(N3CCCCC3)c([N+](=O)[O-])c2)cc1 | inactive: > 30 µM
O=C1CCCC2=C1C(c1cccs1)Nc1ccccc1N2 (centres undefined) | inactive: > 30 µM
COc1ccc2occ(C(C)=O)c2c1 | inactive: > 30 µM
Cn1c(=O)c2[nH]c(CCCC(=O)O)nc2n(Cc2ccccc2)c1=S | inactive: > 30 µM
c1ccc2c(c1)OCC(CNCC1COc3ccccc3O1)O2 (centres undefined) | inactive: > 30 µM
Cc1ccsc1/C=N/Nc1ncnc2nc[nH]c12 | inactive: > 30 µM
CCOC(=O)CCCSc1nnc(CCCCCN2C(=O)c3cccc4cccc(c34)C2=O)o1 | inactive: > 30 µM
Nc1nc(NCCCN2CCOCC2)nc(Nc2ccc(F)cc2)c1[N+](=O)[O-] | inactive: > 30 µM
Nc1ncnc2c1ncn2[C@@H]1O[C@H](COP(=O)(O)O)[C@@H](O)[C@H]1O | inactive: > 30 µM
COCCn1c(SCC(=O)Nc2ncc(Cl)c(C)c2Cl)nc2ccccc21 | inactive: > 30 µM
N#CCCn1cc(C(CC(=O)c2ccccc2)C(=O)O)c2ccccc21 (centres undefined) | inactive: > 30 µM
CCCCOc1ccc(/C=N/NC(=O)c2nnn(-c3nonc3N)c2CN2CCCCCC2)cc1 | inactive: > 30 µM
CCc1nnc(NC(=O)c2ccc3c(=O)n4c(nc3c2)CCCCC4)s1 | inactive: > 30 µM
CCOC(=O)C1=C(C)Nc2ncnn2C1c1ccc2c(c1)OCO2 (centres undefined) | inactive: > 30 µM
COC(=O)COc1ccc2occ(C(C)=O)c2c1 | inactive: > 30 µM
CCCn1nc(NC(=O)c2cccs2)c2cc3ccc(C)cc3nc21 | inactive: > 30 µM

Two of the compounds above, as labelled records.
O=C(c1cccs1)c1coc2ccc(O)cc12
  EC50: inactive: > 30 µM
CCCCCOc1ccc(/C=N/NC(=O)c2nnn(-c3nonc3N)c2CN2CCCCCC2)cc1
  EC50: inactive: > 30 µM

Next part

Compound | EC50
O=C(COc1ccccc1[N+](=O)[O-])N/N=C/C=C/c1ccco1 | inactive: > 30 µM
COc1ccc2occ(C(=O)c3ccccc3)c2c1 | inactive: > 30 µM
Nc1nc(O)c(N=Nc2ccc(S(N)(=O)=O)cc2)c(=O)[nH]1 | inactive: > 30 µM
COc1cc(/C=C/c2nc3ccc([N+](=O)[O-])cc3s2)ccc1OCC(=O)O | inactive: > 30 µM
N#CCCn1cc(/C=N/O)c(-c2cccc([N+](=O)[O-])c2)n1 | inactive: > 30 µM
Clc1ccc(-c2nnc(-c3ccccc3)c(N3CCSCC3)n2)cc1 | inactive: > 30 µM
COc1ccc(Nc2nc(NCC3CCCO3)nc(N)c2[N+](=O)[O-])cc1 (centres undefined) | inactive: > 30 µM
Clc1ccc(CSc2nnc(-c3ccncc3)o2)c(Cl)c1 | inactive: > 30 µM
O=C(CN1C(=O)CCC1=O)Nc1ccc2c3c(cccc13)CC2 | inactive: > 30 µM
COc1cccc(C(=O)NCC(=O)N/N=C(C)\C=C\c2ccccc2)c1 | inactive: > 30 µM
CC1CCCC(C)N1C(=O)CN1C(=O)C(C)(C)Oc2ccc(C(=O)NC3CCCC3)cc21 (centres undefined) | inactive: > 30 µM
CC(=O)Oc1ccc2occ(C(=O)c3ccccc3)c2c1 | inactive: > 30 µM
CN(C)Cc1c(C(=O)N/N=C/CCc2ccccc2)nnn1-c1nonc1N | inactive: > 30 µM
Cc1ccc(/C=N/Nc2ncnc3nc[nH]c23)cc1 | inactive: > 30 µM
CCCc1cc(=O)[nH]c2nnc(SCC(=O)Nc3nccs3)n12 | inactive: > 30 µM
COc1cc(/C=C2\SC(=Nc3ccc(O)cc3)NC2=O)cc(OC)c1OC | inactive: > 30 µM
COc1ccc(C(=O)O/N=C(\N)c2ccccn2)cc1 | active: 15.5 µM
Cc1cc(CNC(=O)c2cc(COc3c(F)cccc3F)on2)nn1C | inactive: > 30 µM
CCOC(=O)/C=C(/C)N1N=C(c2ccc(OC)cc2)CC1c1cccc([N+](=O)[O-])c1 (centres undefined) | inactive: > 30 µM

Random excerpt: two records from the list
Compound | EC50
CN(C)Cc1c(C(=O)N/N=C/CCc2ccccc2)nnn1-c1nonc1N | inactive: > 30 µM
Nc1nc(O)c(N=Nc2ccc(S(N)(=O)=O)cc2)c(=O)[nH]1 | inactive: > 30 µM
